Some of these results come from one statement about several compounds together. For at least one compound, name, drawing or mass did not settle the structure.
System: split Dar-1 riboswitch (P152/P218)
Assay: split aptamer SAH FP assay
Assay type: binding, D. aromatica
Settings: FIG. 4C, read-out: EC50 values (complexation with the split aptamers)
Experimental: Based on the predicted folding of the Dar-1 sequence and imputed SAH binding interactions (Wang et al., 2008, Mol Cell. 29(6):691-702), two versions of a split Dar-1 riboswitch were tested, comprised of either a 59 or 52 base 5′ element (P159 of SEQ ID NO:6 or P152 of SEQ ID NO:7) and the remaining 18 base 3′ element (P218 of SEQ ID NO:8). […] For simplicity, EC50 values were used as an approximation of ligand dissociation constants, or Kd. […] This is the first example of a split aptamer sensor with FP readout.
Selectivity vs. SAM is a critical parameter, as measurement of HMT enzyme activity requires detection of SAH in an excess of SAM. […] Thus, the selectivity for SAH is at least 200-fold and likely higher; however, measurements are limited by contamination of SAM with SAH. The combination of sensitivity and selectivity is reflected in a standard curve mimicking an HMT enzyme reaction, in which 200 nM SAM was decreased as SAH was added proportionately (FIG. 4D). To quantitatively assess the robustness of the split aptamer FP assay, the standard curve was done with sixteen replicates to allow determination of Z′ values, a commonly used HTS assay statistic that measures that incorporates both dynamic range and data variability (Zhang et al., 1999, J Biomol. Screen. 4(2):67-73). […] The Z′ measured in this Example was 0.56, indicative of a high quality assay.

Structure (SMILES)	EC50 [µM]
Nc1ncnc2c1ncn2[C@@H]1O[C@H](COP(=O)(O)OP(=O)(O)OP(=O)(O)O)[C@@H](O)[C@H]1O [ATP]	> 4
C[S+](CC[C@H](N)C(=O)[O-])C[C@H]1O[C@@H](n2cnc3c(N)ncnc32)[C@H](O)[C@@H]1O (some centres unmarked) [SAM, S-adenosylmethionine]	> 4
